The list shows a part of the results.
Legend:
Assay in all cases: log2 fold change, soluble protein after heating vs DMSO (PISA); higher = thermal stabilisation; K562 cells, 10 uM, 30 min; active = over 0.2 and 3.5 SD of the protein, either way, in both replicates (recomputed)
[1] = compound: CC[C@@H]1C(=O)N(C)c2cnc(Nc3ccc(C(=O)NC4CCN(C)CC4)cc3OC)nc2N1C1CCCC1
Method in brief: (§1)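 K562 cells at 2×10^6 cells/mL were treated with 10 μM compound for 30 min. Aliquots were heated for 3 min across 48°C-58°C, pooled, and extracted in PBS with 0.5% NP-40 at 4°C; soluble protein was the supernatant after 21,000xg for 90 min. Soluble protein was quantified by TMTpro 16plex LC-MS/MS with channel sums equalised, and reported as log2 fold change in thermal stability against DMSO controls, with values from duplicates.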

The chains behind the UniProt entries cited, without tags or fusion partners. Where a name states a change or a piece, a line headed by the entry shows the natural chain unless it says otherwise.
UniProt P37198: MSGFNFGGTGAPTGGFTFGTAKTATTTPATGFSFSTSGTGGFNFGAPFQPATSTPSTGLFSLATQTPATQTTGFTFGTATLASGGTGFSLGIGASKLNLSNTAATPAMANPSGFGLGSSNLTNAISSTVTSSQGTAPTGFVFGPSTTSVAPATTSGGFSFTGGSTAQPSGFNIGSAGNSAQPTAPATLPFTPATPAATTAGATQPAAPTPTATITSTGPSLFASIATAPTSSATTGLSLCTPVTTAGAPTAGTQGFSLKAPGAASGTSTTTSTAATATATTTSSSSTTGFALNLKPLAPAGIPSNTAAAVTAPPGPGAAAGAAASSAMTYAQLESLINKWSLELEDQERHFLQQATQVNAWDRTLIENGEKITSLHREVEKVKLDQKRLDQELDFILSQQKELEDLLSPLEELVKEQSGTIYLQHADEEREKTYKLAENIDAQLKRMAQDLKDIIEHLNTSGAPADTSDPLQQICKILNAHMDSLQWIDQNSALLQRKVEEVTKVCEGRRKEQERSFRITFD
UniProt Q9BXS6: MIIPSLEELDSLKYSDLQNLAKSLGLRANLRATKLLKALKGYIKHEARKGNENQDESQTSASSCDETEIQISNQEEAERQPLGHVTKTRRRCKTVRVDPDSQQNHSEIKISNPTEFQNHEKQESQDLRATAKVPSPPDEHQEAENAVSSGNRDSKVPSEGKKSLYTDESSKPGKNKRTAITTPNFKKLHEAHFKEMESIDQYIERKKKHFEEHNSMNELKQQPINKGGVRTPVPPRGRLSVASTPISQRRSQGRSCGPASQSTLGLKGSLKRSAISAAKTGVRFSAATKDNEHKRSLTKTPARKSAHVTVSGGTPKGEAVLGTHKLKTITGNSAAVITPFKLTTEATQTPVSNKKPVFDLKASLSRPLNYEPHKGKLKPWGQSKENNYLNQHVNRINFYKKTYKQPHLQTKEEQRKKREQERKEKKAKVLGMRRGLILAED
UniProt Q96SU4: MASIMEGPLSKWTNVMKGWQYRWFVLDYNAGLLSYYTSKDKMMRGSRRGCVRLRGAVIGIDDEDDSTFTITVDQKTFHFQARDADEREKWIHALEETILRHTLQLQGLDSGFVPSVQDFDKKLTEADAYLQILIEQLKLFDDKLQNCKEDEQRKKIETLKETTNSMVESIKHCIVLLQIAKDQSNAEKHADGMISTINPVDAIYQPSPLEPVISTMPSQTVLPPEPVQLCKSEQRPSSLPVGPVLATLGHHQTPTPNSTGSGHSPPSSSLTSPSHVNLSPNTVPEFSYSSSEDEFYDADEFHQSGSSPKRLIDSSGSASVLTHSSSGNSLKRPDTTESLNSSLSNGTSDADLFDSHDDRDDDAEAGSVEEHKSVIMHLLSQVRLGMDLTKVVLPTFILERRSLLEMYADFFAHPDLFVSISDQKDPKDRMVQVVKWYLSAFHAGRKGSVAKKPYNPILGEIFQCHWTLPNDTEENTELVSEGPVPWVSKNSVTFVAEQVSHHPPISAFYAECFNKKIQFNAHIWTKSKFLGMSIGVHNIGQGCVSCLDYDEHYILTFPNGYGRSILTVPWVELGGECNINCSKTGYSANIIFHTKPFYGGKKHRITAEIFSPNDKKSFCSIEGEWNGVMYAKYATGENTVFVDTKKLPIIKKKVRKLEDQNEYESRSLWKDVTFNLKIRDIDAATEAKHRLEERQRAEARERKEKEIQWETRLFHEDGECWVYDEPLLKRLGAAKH
UniProt Q6PK18: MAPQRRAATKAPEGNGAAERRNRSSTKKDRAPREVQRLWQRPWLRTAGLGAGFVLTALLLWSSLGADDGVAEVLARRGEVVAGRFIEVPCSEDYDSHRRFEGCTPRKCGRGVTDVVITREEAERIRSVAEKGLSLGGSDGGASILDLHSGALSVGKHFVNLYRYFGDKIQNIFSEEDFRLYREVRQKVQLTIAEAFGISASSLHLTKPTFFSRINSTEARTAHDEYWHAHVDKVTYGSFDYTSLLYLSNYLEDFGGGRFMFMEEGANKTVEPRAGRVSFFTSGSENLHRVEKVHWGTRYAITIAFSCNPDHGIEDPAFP
UniProt Q9BZF3: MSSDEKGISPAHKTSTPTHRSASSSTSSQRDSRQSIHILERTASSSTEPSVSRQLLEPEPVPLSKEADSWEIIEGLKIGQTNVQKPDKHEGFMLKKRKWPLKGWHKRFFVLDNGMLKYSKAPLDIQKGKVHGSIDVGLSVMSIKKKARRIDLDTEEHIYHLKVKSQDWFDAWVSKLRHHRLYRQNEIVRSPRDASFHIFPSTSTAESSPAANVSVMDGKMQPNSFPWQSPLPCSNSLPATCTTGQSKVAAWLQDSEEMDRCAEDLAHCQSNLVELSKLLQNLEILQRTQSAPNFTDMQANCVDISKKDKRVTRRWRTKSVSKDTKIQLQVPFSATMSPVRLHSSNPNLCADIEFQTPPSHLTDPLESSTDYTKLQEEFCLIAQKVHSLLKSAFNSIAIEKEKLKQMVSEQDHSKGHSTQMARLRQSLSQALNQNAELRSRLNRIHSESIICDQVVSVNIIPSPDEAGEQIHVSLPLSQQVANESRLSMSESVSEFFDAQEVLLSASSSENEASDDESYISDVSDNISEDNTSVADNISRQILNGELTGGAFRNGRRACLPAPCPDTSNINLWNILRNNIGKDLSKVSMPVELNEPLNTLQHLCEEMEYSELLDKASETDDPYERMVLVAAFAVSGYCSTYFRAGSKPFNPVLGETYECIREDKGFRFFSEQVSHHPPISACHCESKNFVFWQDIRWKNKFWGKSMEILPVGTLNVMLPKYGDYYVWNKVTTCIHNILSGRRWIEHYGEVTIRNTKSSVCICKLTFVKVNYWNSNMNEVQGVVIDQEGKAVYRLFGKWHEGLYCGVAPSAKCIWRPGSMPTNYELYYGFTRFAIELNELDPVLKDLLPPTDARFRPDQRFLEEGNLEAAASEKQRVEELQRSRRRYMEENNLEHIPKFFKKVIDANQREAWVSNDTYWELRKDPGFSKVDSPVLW
UniProt Q96G74: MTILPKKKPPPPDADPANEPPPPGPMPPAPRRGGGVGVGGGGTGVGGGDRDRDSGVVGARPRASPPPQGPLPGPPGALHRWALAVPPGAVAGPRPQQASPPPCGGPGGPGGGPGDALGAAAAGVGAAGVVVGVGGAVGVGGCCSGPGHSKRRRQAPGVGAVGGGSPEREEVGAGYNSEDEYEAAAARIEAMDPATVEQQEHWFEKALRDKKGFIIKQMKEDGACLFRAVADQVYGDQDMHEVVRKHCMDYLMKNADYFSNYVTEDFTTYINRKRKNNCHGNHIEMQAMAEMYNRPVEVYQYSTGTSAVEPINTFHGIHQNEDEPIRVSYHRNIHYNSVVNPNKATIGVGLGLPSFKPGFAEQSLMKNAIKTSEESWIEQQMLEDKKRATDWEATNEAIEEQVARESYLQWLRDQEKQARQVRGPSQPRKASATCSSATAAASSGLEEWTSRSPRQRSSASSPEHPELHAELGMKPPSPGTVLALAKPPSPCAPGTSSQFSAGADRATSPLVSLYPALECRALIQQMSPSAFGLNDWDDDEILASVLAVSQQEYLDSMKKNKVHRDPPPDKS
UniProt Q96HP4: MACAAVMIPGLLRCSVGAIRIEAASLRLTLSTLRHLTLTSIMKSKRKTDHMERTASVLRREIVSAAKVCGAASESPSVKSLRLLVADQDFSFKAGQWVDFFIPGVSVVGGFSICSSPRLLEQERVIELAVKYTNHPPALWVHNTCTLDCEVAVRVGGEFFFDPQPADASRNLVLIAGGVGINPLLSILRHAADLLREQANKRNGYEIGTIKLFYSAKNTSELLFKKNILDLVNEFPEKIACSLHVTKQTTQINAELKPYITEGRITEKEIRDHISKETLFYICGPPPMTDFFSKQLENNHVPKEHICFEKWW
UniProt Q9BSD7: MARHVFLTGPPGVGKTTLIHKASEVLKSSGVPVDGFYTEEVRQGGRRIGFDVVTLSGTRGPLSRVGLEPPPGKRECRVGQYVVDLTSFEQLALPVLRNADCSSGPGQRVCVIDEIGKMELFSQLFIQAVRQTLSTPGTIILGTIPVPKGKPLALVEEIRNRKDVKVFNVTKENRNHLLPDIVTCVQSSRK
UniProt Q5SWX8: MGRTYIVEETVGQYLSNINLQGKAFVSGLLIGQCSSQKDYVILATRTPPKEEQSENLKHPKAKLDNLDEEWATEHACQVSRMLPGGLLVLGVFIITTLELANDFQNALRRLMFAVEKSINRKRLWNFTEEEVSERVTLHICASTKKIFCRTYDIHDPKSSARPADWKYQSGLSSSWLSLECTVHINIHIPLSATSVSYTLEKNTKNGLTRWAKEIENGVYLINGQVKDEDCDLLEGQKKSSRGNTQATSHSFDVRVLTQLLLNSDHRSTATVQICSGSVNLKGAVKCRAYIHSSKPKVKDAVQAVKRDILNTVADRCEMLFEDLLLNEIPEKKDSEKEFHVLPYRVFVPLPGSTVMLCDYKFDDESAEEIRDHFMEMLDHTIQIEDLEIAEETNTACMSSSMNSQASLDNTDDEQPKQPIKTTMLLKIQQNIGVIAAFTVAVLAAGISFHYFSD
UniProt Q9Y266: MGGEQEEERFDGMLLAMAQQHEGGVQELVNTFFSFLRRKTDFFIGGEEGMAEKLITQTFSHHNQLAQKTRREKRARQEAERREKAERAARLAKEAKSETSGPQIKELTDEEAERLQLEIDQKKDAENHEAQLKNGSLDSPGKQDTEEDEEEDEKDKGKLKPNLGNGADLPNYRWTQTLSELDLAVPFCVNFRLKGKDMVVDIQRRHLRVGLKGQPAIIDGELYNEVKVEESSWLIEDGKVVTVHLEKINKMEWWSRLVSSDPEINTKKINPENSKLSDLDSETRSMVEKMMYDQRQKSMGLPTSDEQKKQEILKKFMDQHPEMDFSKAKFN
UniProt P61970, whole entry, looked up: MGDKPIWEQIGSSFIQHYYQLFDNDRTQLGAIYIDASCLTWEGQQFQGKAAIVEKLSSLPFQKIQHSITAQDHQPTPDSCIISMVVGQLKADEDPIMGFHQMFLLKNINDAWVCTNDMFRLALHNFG
UniProt Q7Z417: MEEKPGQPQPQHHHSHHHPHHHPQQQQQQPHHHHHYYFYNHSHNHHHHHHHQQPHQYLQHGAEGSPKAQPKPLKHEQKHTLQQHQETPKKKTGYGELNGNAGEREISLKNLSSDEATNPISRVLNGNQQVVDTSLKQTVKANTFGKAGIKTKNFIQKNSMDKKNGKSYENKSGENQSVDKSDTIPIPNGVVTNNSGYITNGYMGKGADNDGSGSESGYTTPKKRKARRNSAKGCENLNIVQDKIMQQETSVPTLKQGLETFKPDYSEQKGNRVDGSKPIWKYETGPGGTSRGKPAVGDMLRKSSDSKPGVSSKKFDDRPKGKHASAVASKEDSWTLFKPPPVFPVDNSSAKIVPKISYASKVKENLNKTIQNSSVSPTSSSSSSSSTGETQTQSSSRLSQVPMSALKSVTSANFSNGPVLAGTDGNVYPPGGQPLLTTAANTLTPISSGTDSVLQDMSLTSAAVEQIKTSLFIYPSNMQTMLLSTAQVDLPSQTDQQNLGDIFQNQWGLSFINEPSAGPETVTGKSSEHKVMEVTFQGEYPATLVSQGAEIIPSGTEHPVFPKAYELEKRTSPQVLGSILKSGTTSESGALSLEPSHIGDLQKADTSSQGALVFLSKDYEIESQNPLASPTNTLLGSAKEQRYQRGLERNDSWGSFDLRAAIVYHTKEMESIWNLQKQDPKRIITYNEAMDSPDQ
UniProt Q9UBD5: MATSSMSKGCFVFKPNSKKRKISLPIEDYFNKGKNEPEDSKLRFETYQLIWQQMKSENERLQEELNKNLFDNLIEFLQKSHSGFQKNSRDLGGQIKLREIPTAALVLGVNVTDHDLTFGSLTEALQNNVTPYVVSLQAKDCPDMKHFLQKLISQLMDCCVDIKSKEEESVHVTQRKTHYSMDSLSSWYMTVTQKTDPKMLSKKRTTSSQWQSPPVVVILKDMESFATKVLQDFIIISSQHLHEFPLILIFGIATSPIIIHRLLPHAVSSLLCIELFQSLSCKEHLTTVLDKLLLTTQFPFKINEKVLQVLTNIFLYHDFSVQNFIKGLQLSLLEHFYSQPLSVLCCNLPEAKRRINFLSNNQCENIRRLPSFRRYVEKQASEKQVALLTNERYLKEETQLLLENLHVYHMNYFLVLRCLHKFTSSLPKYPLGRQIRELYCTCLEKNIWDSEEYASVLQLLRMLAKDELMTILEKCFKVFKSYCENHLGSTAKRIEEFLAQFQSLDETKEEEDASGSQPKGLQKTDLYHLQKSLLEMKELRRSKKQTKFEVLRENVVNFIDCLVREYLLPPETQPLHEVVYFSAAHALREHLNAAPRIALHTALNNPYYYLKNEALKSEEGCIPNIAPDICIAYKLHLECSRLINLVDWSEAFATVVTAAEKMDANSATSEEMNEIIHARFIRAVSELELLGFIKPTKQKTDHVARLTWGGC
UniProt Q9NZJ9: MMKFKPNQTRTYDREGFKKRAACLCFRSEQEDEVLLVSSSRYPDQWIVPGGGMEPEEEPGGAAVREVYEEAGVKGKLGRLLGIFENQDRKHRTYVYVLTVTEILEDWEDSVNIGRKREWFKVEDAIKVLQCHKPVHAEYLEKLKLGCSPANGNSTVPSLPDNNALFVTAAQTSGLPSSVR

volasertib = compound: CC[C@@H]1C(=O)N(C)c2cnc(Nc3ccc(C(=O)N[C@H]4CC[C@H](N5CCN(CC6CC6)CC5)CC4)cc3OC)nc2N1C(C)C [volasertib]
Method in brief: as §1

[2] = compound: CC[C@H](C)N1C=C(C2=C(C=C(C=C21)C3=CN=C(C=C3)N4CCNCC4)C(=O)NCC5=C(C=C(NC5=O)C)C)C
Method in brief: as §1

epoxomicin = compound: CC[C@H](C)[C@@H](C(=O)N[C@@H]([C@@H](C)O)C(=O)N[C@@H](CC(C)C)C(=O)[C@]1(CO1)C)NC(=O)[C@H]([C@@H](C)CC)N(C)C(=O)C [epoxomicin]
Method in brief: as §1

[3] = compound: CCn1c(C(=O)N(C2CC2)C2CC2)cc2c3c(ncn3C)c(Nc3cc(C)n(C)n3)nc21
Method in brief: as §1

[4] = compound: CCn1cc(-c2ccnc3[nH]c(-c4cccc(CN(C)C)c4)cc23)c(-c2ccc(NC(=O)N(C)C)cc2)n1
Method in brief: as §1

[5] = compound: CN(C)CC(=O)Nc1ccc2[nH]c(=O)c3ccccc3c2c1
Method in brief: as §1

rosiglitazone = compound: CN(CCOC1=CC=C(C=C1)C[C@H]2C(=O)NC(=O)S2)C3=CC=CC=N3 (racemic) [rosiglitazone]
Method in brief: as §1

[6] = compound: CN1C2=C(C3=C1C(=O)N(N=C3)CC4=CC(=CC=C4)N)SC(=C2)S(=O)C
Method in brief: as §1

[7] = compound: CN1CCC(CNc2ccc3ncc(-c4cccc(OC(F)(F)F)c4)n3n2)CC1
Method in brief: as §1

Measured: log2 fold change

PABPC1 (UniProt P11940)
inactive: [1] 0.135 | volasertib 0.103 | [2] 0.072 | epoxomicin -0.106 | [3] 0.068 | [4] 0.052 | [5] -0.054 | rosiglitazone -0.041 | [6] 0.091 | [7] -0.011

ORC6 (UniProt Q9Y5N6)
inactive: [1] -0.045 | volasertib -0.181 | [2] 0.045 | epoxomicin 0.184

NUP62 (UniProt P37198)
inactive: [1] -0.064 | volasertib -0.137 | [2] 0.041 | epoxomicin 0.011 | [3] -0.046 | [4] 0.002 | [5] 0.027 | rosiglitazone 0.055 | [6] 0.028 | [7] -0.093

OTUB1 (UniProt Q96FW1)
inactive: [1] -0.063 | volasertib -0.109 | [2] 0.019 | epoxomicin 0.055 | [3] -0.001 | [4] -0.032 | [5] 0.007 | rosiglitazone 0.028 | [6] -0.089 | [7] -0.053

NUSAP1 (UniProt Q9BXS6)
inactive: [1] 0.213 | volasertib 0.353 | [2] -0.207 | epoxomicin -0.124 | [3] 0.035 | [4] 0.111 | [5] -0.047 | rosiglitazone 0.019 | [6] 0.161 | [7] 0.202

NUBP2 (UniProt Q9Y5Y2)
inactive: [1] -0.003 | volasertib -0.153 | [2] 0.037 | epoxomicin -0.005 | [3] -0.018 | [4] -0.09 | [5] 0.038 | rosiglitazone 0.034 | [6] -0.134 | [7] -0.097

NT5DC2 isoform 2 (UniProt Q9H857)
inactive: [1] 0.054 | volasertib 0.017 | [2] -0.022 | epoxomicin -0.004 | [3] 0.003 | [4] -0.031 | [5] -0.026 | rosiglitazone -0.056 | [6] -0.018 | [7] 0.024

OSBPL9 (UniProt Q96SU4)
inactive: [1] -0.087 | volasertib 0.121 | [2] -0.029 | epoxomicin -0.039 | [3] 0.5 | [4] 0.035 | [5] 0.153 | rosiglitazone 0.111 | [6] 0.118 | [7] 0.127

OGFOD3 isoform 2 (UniProt Q6PK18)
inactive: [1] 0.028 | volasertib -0.001 | [2] -0.081 | epoxomicin 0.014 | [3] -0.025 | [4] -0.165 | [5] -0.052 | rosiglitazone 0.015 | [6] 0.051 | [7] 0.098

PAAT (UniProt Q9H8K7)
inactive: [1] 0.348 | volasertib -0.033 | [2] -0.199 | epoxomicin 0 | [3] 0.04 | [4] -0.027 | [5] -0.052 | rosiglitazone 0.073 | [6] -0.054 | [7] 0.003

OSBPL6 isoform 5 (UniProt Q9BZF3)
inactive: [1] 0.484 | volasertib 0.173 | [2] 0.155 | epoxomicin -0.84 | [3] -0.066

NUP58 (UniProt Q9BVL2)
inactive: [1] 0.046 | volasertib -0.031 | [2] -0.012 | epoxomicin 0.028 | [3] -0.036 | [4] -0.036 | [5] -0.011 | rosiglitazone 0.006 | [6] 0.028 | [7] 0

OMA1 (UniProt Q96E52)
inactive: [1] 0.034 | volasertib -0.044 | [2] -0.051 | epoxomicin 0.001 | [3] -0.003 | [4] -0.038 | [5] -0.025 | rosiglitazone 0.019 | [6] -0.083 | [7] 0.042

OTUD5 isoform 5 (UniProt Q96G74)
inactive: [1] 0.06 | volasertib -0.159 | [2] 0.022 | epoxomicin 0.06 | [3] 0.005 | [4] -0.044 | [5] 0.002 | rosiglitazone 0.056 | [6] -0.043 | [7] -0.05

OXNAD1 (UniProt Q96HP4)
inactive: [1] 0.013 | volasertib -0.009 | [2] -0.005 | epoxomicin 0.055 | [3] -0.01 | [4] 0.019 | [5] -0.037 | rosiglitazone -0.018 | [6] -0.046 | [7] 0.053

OPLAH (UniProt O14841)
inactive: [1] -0.002 | volasertib -0.025 | [2] 0.017 | epoxomicin 0.007 | [3] -0.01 | [4] -0.071 | [5] 0.006 | rosiglitazone 0.03 | [6] -0.044 | [7] -0.009

NUCB1 (UniProt Q02818)
inactive: [1] 0.062 | volasertib 0.074 | [2] -0.037 | epoxomicin 0.031 | [3] 0.035 | [4] 0.027 | [5] -0.039 | rosiglitazone -0.029 | [6] -0.034 | [7] 0.123

NTPCR (UniProt Q9BSD7)
inactive: [1] -0.053 | volasertib 0.076 | [2] -0.003 | epoxomicin 0.061 | [3] 0.024 | [4] -0.182 | [5] 0.026 | rosiglitazone 0.051 | [6] -0.024 | [7] -0.125

OS9 (UniProt Q13438)
inactive: [1] 0.018 | volasertib -0.02 | [2] -0.011 | epoxomicin 0.043 | [3] -0.021 | [4] -0.009 | [5] -0.036 | rosiglitazone -0.005 | [6] 0.019 | [7] 0.094

ORC4 (UniProt O43929)
inactive: [1] -0.09 | volasertib -0.284 | [2] 0.082 | epoxomicin 0.042 | [3] -0.062 | [4] -0.148 | [5] 0.011 | rosiglitazone 0.062 | [6] -0.058 | [7] -0.247

ODR4 (UniProt Q5SWX8)
inactive: [1] 0.001 | volasertib -0.088 | [2] 0.056 | epoxomicin -0.027 | [3] -0.049 | [4] -0.108 | [5] 0 | rosiglitazone 0.087 | [6] -0.043 | [7] 0.025

OXCT1 (UniProt P55809)
inactive: [1] 0.035 | volasertib 0.037 | [2] 0.008 | epoxomicin 0.05 | [3] -0.011 | [4] -0.069 | [5] -0.005 | rosiglitazone 0.045 | [6] -0.077 | [7] 0.103

NUDC (UniProt Q9Y266)
inactive: [1] -0.074 | volasertib 0.031 | [2] 0.047 | epoxomicin 0.023 | [3] -0.001 | [4] -0.076 | [5] -0.026 | rosiglitazone 0.045 | [6] -0.052 | [7] -0.056

NUTF2 (UniProt P61970)
inactive: [1] 0.006 | volasertib -0.041 | [2] 0.016 | epoxomicin 0.028 | [3] -0.067 | [4] -0.117 | [5] 0.196 | rosiglitazone -0.006 | [6] -0.035 | [7] 0.052

NUFIP2 (UniProt Q7Z417)
inactive: [1] 0.066 | volasertib 0.075 | [2] -0.001 | epoxomicin -0.076 | [3] 0.008 | [4] 0.067 | [5] -0.046 | rosiglitazone -0.074 | [6] 0.137 | [7] 0.114

NUP88 (UniProt Q99567)
inactive: [1] -0.107 | volasertib -0.416 | [2] 0.053 | epoxomicin -0.069 | [3] -0.033 | [4] -0.004 | [5] 0.011 | rosiglitazone 0.044 | [6] 0.152 | [7] 0.001

ORC3 (UniProt Q9UBD5)
inactive: [1] -0.167

OIP5 (UniProt O43482)
inactive: [1] 0 | volasertib -0.013 | [2] 0.017 | epoxomicin -0.013 | [3] -0.019 | [4] -0.013 | [5] 0.005 | rosiglitazone 0.042 | [6] -0.07 | [7] -0.094

OGT (UniProt O15294)
inactive: [1] -0.075 | volasertib -0.075 | [2] 0.019 | epoxomicin 0.024 | [3] -0.069 | [4] -0.12 | [5] 0.057 | rosiglitazone 0.005 | [6] 0.04 | [7] 0.104

NUDT4 (UniProt Q9NZJ9)
inactive: [1] -0.121 | volasertib -0.181 | [2] 0.023 | epoxomicin 0.04 | [3] 0.006 | [4] -0.001 | [5] 0.01 | rosiglitazone 0.061 | [6] -0.071 | [7] -0.184

Quoted from above (2 entries):
NUP88 (UniProt Q99567)
inactive: [1] -0.107 | volasertib -0.416 | [2] 0.053 | epoxomicin -0.069 | [3] -0.033 | [4] -0.004 | [5] 0.011 | rosiglitazone 0.044 | [6] 0.152 | [7] 0.001

ORC3 (UniProt Q9UBD5)
inactive: [1] -0.167

Next part:

NSRP1 (UniProt Q9H0G5)
inactive: [1] 0.115 | volasertib 0.03 | [2] 0.02 | epoxomicin -0.128 | [3] 0.011 | [4] 0.095 | [5] -0.066 | rosiglitazone -0.055 | [6] 0.204 | [7] 0.096

Source: the supplement of paper PMC10849652
